Measurements reported in PubChem BioAssay AID602196 (INSERM, 2012).

Screen: 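Genes whose knock-down alters cisplatin killing of lung cancer cells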
System: human A549 lung cancer cells
Reagents: siRNA pair against human genes
Timing: 48 h transfection before cisplatin; time from cisplatin to read-out not stated
Conditions: cisplatin at a dose killing half of control-siRNA cells; exact dose and duration not given
Measurement: 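Shift in cisplatin death relative to control siRNA, from -50 (all cells die) to +50 (no cells die); siRNAs harmful on their own scored 0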
Scale: two-siRNA summed score (-2 to +2): higher = both siRNAs protect from cisplatin killing; -2 means both sensitise
Hit rule: 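siRNAs harmful alone (LDH or WST-1) get 0; others get +1 for less and -1 for more cisplatin killing; genes are active when the two siRNAs give the same sign, summing to ±2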
Meaning of the calls: active = both siRNAs shift cisplatin killing the same way; inactive = no consistent shift, or siRNA harmful alone
The whole screen tested about 23,000 reagents; below is a random part of them. Of all reagents, 455 (2%) are marked active. 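Active includes both protection and sensitisation; some change values fall well beyond the stated -50 to +50 range.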 Not all columns of the deposit are shown. The record does not give: the amount of reagent.

| gene | two-siRNA summed score (-2 to +2) | Call |
| --- | --- | --- |
| P4HA1 | 0 | inactive |
| KLHL28 | 0 | inactive |
| CLEC1A | 0 | inactive |
| N4BP2L1 | 0 | inactive |
| LOC441041 | 0 | inactive |
| SP2 | 1 | inactive |
| TGM6 | 0 | inactive |
| TARS2 | 0 | inactive |
| PIAS2 | 0 | inactive |
| CD74 | 0 | inactive |
| BPTF | 0 | inactive |
| PROSER3 | 0 | inactive |
| EVI5 | 1 | inactive |
| MFN1 | 0 | inactive |
| OR10G9 | 0 | inactive |
| IKZF4 | 0 | inactive |
| TPM2 | 0 | inactive |
| PGM3 | 0 | inactive |
| RBAK | 0 | inactive |
| KCNA6 | 0 | inactive |
| MTFR1L | 0 | inactive |
| LOC342994 | 0 | inactive |
| NCOA7 | 2 | active |
| FLJ34077 | 1 | inactive |
| ZNF165 | 0 | inactive |
| XPO5 | 0 | inactive |
| KRTAP4-5 | 0 | inactive |
| ADCY10P1 | 1 | inactive |
| MORF4L2 | 0 | inactive |
| AKT1S1 | 0 | inactive |
| SLC12A7 | 0 | inactive |
| LSM14A | 1 | inactive |
| ADSL | 1 | inactive |
| CAMTA1 | 0 | inactive |
| CXXC1 | 0 | inactive |
| UBXN1 | 0 | inactive |
| ZNF410 | 0 | inactive |
| SPTBN5 | 0 | inactive |
| CYP11B1 | 0 | inactive |
| PCDHA1 | 2 | active |
| TAS2R42 | 1 | inactive |
| AP3S2 | 0 | inactive |
| CCDC144NL-AS1 | 1 | inactive |
| CDC37L1 | 0 | inactive |
| MIPOL1 | 0 | inactive |
| LOC389095 | 1 | inactive |
| MED14 | 0 | inactive |
| SLAMF7 | 0 | inactive |
| BRCA2 | 0 | inactive |
| EIF3F | 0 | inactive |
| EML2 | 0 | inactive |
| CHD5 | -1 | inactive |
| ANKRD30BP3 | 1 | inactive |
| MIER3 | 0 | inactive |
| LOC440000 | 0 | inactive |
| LARP4B | 0 | inactive |
| TMEM126B | 0 | inactive |

A portion taken from the entries so far:
| gene | two-siRNA summed score (-2 to +2) | Call |
| --- | --- | --- |
| TAS2R42 | 1 | inactive |
| AP3S2 | 0 | inactive |
| CCDC144NL-AS1 | 1 | inactive |
| CDC37L1 | 0 | inactive |
| MIPOL1 | 0 | inactive |
| LOC389095 | 1 | inactive |
| MED14 | 0 | inactive |
